These results are taken from US20190300897A1 (INSTITUTE OF GENETICS AND DEVELOPMENTAL BIOLOGY CHINESE …, published 2019).

Results are given in words; binding and its absence hold for the method and conditions named. In cells and extracts the contact can be indirect. Some results given as binding are weak or reduced against the parent protein; the word gives no strength. Sequences can lack the tags named with a protein.

The target in assay [1] is T1, MBP-DA2 (Arabidopsis, UniProt Q93YV5 1-401).
T1 construct: Used as bacterial lysate and held on amylose resin; also called DA2 expressed as a MBP fusion protein; DA2-MBP
T1 sequence: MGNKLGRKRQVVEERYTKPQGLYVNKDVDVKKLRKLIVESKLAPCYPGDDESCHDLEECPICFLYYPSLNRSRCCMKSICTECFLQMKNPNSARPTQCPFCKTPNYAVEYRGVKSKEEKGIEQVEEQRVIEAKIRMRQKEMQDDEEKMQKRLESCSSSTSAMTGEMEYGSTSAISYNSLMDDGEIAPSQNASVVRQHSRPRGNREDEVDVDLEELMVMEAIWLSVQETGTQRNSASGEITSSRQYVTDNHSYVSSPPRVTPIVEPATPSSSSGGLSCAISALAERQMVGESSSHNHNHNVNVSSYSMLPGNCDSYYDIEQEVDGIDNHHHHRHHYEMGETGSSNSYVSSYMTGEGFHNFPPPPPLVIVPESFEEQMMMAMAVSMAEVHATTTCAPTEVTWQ
As to the kind of experiment: in vitro pull-down, MBP-DA2 on amylose resin, anti-GST immunoblot.

For assay [2], the target named is T1, MBP-DA2. Nature of the assay: in vitro pull-down, MBP-DA2 on amylose resin, anti-GST immunoblot (legend of FIG. 12).
Assay [3] concerns the target T2, GFP-DA2 (Arabidopsis) (UniProt Q93YV5).
T2 sequence: T1 sequence
Nature of the assay: co-immunoprecipitation with GFP-Trap-A from Nicotiana benthamiana leaves, anti-Myc immunoblot (legend of FIG. 14). In general terms: Immunoblotting shows a protein as a band on a membrane.

Assay [4] addresses T2, GFP-DA2 (Arabidopsis). As to the kind of experiment: co-immunoprecipitation with GFP-Trap-A from Nicotiana benthamiana leaves, anti-Myc immunoblot.
In assay [5] the target is T2, GFP-DA2 (Arabidopsis). As to the kind of experiment: co-immunoprecipitation from Nicotiana benthamiana leaves, anti-Myc immunoblot.

B1: GST-DA1-LIM+C (protein, not shown: a dimerising Fc or GST)
chain: RICAGCNMEIGHGRFLNCLNSLWHPECFRCYGCSQPISEYEFSTSGNYPFHKACYRERYHPKCDVCSHFIPTNHAGLIEYRAHPFWVQKYCPSHEHDATPRCCSCERMEPRNTRYVELNDGRKLCLECLDSAVMDTMQCQPLYLQIQNFYEGLNMKVEQEVPLLLVERQALNEAREGEKNGHYHMPETRGLCLSEEQTVSTVRKRSKHGTGKWAGNITEPYKLTRQCEVTAILILFGLPRLLTGSILAHEMMHAWMRLKGFRTLSQDVEEGICQVMAHKWLDAELAAGSTNSNAASSSSSSQGLKKGPRSQYERKLGEFFKHQIESDASPVYGDGFRAGRLAVHKYGLRKTLEHIQMTGRFPV
For B1, the binding entry with MBP-DA2 [1] was “binds”.

B2: GST-DA1 (protein, not shown: a dimerising Fc or GST)
chain: MGWFNKIFKGSNQRLRVGNNKHNHNVYYDNYPTASHDDEPSAADTDADNDEPHHTQEPSTSEDNTSNDQENEDIDRAIALSLLEENQEQTSISGKYSMPVDEDEQLARALQESMVVGNSPRHKSGSTYDNGNAYGAGDLYGNGHMYGGGNVYANGDIYYPRPITFQMDFRICAGCNMEIGHGRFLNCLNSLWHPECFRCYGCSQPISEYEFSTSGNYPFHKACYRERYHPKCDVCSHFIPTNHAGLIEYRAHPFWVQKYCPSHEHDATPRCCSCERMEPRNTRYVELNDGRKLCLECLDSAVMDTMQCQPLYLQIQNFYEGLNMKVEQEVPLLLVERQALNEAREGEKNGHYHMPETRGLCLSEEQTVSTVRKRSKHGTGKWAGNITEPYKLTRQCEVTAILILFGLPRLLTGSILAHEMMHAWMRLKGFRTLSQDVEEGICQVMAHKWLDAELAAGSTNSNAASSSSSSQGLKKGPRSQYERKLGEFFKHQIESDASPVYGDGFRAGRLAVHKYGLRKTLEHIQMTGRFPV
For B2, the binding result in the assay with MBP-DA2 [2] and with MBP-DA2 [1] was “binds” in each case.

B3: Myc-DA1 (protein, not shown: small tags and cut ends)
chain: B2 chain
For B3, the binding result with GFP-DA2 (Arabidopsis) [3] and with GFP-DA2 (Arabidopsis) [4] was “binds” in each case.

B4: GST-DA1-C (protein, not shown: a dimerising Fc or GST)
chain: HPKCDVCSHFIPTNHAGLIEYRAHPFWVQKYCPSHEHDATPRCCSCERMEPRNTRYVELNDGRKLCLECLDSAVMDTMQCQPLYLQIQNFYEGLNMKVEQEVPLLLVERQALNEAREGEKNGHYHMPETRGLCLSEEQTVSTVRKRSKHGTGKWAGNITEPYKLTRQCEVTAILILFGLPRLLTGSILAHEMMHAWMRLKGFRTLSQDVEEGICQVMAHKWLDAELAAGSTNSNAASSSSSSQGLKKGPRSQYERKLGEFFKHQIESDASPVYGDGFRAGRLAVHKYGLRKTLEHIQMTGRFPV
For the molecule B4, in the assay with MBP-DA2 [1], the binding result is on record as “binds”.

B5: Myc-DA1-C (protein, not shown: small tags and cut ends)
chain: B4 chain
With B5, the binding entry with GFP-DA2 (Arabidopsis) [5] is “binds”.
